Some of the results follow.
Assays:
Assay in all cases: log2 fold change, soluble protein after heating vs DMSO (PISA); higher = thermal stabilisation; K562 cells, 10 uM, 30 min; active = over 0.2 and 3.5 SD of the protein, either way, in both replicates (recomputed)
[1] = compound: CC1=C(C=C(C=C1)NC(=O)C2=CC(=CC=C2)C(C)(C)C#N)NC3=CC4=C(C=C3)N=CN(C4=O)C
Outline: (§1)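 For each measurement, 10 μM compound was applied for 30 min to K562 cells at 2×10^6 cells/mL. Aliquots were heated for 3 min across 48°C-58°C, pooled, and extracted in PBS with 0.5% NP-40 at 4°C; the supernatant after 21,000xg for 90 min was soluble protein. This was quantified by TMTpro 16plex LC-MS/MS with channel sums equalised, and thermal stability was reported relative to control samples from duplicates, on a log2 fold-change scale.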

Sequences of proteins named here, by UniProt entry; tags and fusion partners are left off. A change or cut given only in a name is not applied to a line headed by its entry.
UniProt P49711: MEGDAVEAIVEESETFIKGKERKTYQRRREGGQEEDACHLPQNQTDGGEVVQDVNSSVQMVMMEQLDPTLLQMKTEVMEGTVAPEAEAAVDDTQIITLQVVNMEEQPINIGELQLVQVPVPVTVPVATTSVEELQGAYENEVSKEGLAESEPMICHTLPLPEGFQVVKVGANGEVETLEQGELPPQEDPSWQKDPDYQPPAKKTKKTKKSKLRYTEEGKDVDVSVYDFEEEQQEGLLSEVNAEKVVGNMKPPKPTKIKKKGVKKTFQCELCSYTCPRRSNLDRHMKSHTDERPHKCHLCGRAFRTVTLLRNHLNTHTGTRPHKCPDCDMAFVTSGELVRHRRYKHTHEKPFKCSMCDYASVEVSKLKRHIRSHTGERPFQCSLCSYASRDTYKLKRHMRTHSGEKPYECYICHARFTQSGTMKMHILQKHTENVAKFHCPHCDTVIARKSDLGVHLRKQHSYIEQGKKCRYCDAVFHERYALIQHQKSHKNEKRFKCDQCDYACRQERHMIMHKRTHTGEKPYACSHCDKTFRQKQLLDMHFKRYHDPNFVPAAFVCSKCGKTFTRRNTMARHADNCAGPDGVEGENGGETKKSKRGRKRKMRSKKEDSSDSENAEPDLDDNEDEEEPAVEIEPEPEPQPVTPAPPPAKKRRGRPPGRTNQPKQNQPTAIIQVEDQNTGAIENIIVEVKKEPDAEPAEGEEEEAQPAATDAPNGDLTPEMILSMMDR
UniProt P0DMU8: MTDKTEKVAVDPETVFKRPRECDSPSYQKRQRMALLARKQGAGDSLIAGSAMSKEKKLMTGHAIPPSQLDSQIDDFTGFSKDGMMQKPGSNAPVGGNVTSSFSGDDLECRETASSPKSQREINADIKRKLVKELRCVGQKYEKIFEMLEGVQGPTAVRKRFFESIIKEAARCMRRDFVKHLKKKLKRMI
UniProt P51397: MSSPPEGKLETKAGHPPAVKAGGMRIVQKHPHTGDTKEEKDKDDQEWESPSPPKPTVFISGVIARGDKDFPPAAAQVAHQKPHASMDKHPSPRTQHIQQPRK
UniProt P99999: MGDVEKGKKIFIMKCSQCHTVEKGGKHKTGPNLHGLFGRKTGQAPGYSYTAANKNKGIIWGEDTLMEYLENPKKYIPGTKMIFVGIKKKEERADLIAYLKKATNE
UniProt Q9BQA9: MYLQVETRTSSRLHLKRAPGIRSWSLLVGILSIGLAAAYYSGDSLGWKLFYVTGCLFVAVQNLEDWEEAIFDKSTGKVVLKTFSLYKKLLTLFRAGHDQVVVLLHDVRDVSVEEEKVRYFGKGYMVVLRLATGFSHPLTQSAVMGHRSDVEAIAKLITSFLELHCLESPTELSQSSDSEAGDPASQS
UniProt Q96C57: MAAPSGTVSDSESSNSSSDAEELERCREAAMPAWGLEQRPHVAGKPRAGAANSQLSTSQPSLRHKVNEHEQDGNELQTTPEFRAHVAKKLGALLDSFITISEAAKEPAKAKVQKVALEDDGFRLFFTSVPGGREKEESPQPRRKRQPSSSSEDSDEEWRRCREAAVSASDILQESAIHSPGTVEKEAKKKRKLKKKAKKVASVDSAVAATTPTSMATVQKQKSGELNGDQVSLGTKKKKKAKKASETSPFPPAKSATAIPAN
UniProt Q8TEB1, whole entry, looked up: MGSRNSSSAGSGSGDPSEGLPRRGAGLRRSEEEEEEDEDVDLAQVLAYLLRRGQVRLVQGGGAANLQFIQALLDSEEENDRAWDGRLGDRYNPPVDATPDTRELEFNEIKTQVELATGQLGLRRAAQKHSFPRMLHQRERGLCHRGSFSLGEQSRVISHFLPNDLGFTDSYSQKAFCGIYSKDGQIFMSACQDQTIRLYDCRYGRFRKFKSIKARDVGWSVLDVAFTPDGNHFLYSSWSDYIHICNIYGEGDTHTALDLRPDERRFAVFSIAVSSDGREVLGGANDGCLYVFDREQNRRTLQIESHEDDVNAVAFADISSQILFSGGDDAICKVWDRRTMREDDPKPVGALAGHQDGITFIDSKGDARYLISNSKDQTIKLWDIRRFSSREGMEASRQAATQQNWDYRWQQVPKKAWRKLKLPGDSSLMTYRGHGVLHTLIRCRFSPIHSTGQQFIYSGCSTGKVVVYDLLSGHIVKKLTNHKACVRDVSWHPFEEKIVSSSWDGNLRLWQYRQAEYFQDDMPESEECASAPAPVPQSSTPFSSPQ
UniProt P04080: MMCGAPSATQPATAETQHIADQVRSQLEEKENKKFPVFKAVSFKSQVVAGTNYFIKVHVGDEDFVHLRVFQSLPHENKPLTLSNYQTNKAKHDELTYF
UniProt P35221: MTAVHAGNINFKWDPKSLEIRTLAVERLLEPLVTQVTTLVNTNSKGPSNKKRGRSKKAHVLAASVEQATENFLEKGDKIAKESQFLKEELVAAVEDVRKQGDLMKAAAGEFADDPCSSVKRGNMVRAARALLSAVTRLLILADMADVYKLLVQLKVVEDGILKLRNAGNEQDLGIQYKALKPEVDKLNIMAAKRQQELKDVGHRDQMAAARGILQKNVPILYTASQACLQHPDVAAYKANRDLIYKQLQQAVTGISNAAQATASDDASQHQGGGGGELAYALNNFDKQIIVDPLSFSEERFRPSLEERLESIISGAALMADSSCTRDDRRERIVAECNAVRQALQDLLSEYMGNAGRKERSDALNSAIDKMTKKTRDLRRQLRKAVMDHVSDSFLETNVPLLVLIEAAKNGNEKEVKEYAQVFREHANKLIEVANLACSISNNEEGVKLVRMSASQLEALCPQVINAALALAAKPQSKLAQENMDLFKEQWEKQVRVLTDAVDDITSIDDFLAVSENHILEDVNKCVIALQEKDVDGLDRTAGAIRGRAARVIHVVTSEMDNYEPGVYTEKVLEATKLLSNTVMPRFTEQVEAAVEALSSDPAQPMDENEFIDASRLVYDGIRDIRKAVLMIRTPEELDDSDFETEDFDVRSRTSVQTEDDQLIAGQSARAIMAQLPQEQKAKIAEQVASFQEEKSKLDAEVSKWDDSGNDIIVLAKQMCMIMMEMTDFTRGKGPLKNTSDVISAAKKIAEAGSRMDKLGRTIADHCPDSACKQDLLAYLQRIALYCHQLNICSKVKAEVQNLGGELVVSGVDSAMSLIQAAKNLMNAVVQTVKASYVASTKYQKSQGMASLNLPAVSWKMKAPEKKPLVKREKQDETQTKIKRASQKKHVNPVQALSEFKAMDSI
UniProt P17812: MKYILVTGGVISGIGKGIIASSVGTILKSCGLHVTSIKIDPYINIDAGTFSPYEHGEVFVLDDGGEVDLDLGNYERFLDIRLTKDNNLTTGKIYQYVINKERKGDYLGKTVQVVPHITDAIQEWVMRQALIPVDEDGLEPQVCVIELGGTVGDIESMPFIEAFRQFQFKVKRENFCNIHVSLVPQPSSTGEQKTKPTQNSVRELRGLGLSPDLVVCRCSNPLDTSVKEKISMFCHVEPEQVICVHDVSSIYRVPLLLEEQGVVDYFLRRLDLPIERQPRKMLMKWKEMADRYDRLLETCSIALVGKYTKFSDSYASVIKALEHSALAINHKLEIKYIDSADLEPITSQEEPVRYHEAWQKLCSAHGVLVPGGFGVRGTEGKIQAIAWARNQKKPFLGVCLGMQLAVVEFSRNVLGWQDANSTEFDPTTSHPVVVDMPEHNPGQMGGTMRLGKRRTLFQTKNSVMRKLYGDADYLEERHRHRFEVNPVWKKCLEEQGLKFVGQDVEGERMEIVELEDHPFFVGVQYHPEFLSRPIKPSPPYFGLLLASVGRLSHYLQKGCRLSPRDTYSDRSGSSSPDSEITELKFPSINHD
UniProt Q9NWV4: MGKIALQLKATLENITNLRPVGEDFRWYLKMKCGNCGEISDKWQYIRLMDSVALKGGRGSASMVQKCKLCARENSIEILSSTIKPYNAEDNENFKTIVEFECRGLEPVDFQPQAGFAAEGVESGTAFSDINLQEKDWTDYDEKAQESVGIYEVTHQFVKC
UniProt P21291: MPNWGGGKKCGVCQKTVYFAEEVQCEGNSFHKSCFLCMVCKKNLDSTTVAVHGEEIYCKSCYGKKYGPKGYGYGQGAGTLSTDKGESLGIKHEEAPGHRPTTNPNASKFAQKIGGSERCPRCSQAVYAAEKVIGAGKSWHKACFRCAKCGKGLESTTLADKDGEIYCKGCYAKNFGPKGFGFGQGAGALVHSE
UniProt Q96EP5: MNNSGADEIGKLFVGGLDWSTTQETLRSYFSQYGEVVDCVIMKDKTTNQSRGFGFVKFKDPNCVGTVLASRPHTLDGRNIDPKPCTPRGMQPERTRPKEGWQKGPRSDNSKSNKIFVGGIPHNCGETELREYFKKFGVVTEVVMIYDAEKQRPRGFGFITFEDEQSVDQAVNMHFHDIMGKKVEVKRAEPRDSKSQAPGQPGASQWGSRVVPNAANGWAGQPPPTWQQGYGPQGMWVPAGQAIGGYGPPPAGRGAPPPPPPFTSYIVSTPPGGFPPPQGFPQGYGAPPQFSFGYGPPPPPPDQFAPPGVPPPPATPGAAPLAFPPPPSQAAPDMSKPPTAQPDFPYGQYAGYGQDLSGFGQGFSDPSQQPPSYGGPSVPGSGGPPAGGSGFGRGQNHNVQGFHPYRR
UniProt P14868: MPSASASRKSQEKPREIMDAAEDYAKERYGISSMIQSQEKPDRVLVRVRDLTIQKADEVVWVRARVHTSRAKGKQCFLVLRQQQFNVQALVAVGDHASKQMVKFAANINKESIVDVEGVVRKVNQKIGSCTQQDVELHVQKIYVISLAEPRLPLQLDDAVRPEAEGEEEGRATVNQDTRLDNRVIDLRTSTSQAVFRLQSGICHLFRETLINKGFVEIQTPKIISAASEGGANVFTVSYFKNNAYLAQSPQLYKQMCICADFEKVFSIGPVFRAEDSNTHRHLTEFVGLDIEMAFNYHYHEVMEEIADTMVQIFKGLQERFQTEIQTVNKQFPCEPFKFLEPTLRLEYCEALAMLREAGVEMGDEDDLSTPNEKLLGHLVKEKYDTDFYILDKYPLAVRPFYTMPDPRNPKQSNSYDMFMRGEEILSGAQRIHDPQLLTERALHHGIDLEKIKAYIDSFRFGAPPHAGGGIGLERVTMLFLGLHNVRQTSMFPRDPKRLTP

[2] = compound: CC1=C(C=C(C=C1)NC(=O)C2=CC(=CC=C2)N(C)C)NC(=O)C3=CC=C(C=C3)O
Outline: as §1

[3] = compound: CC1=CC=C(C=C1)SC2=C3C=C(SC3=CN=C2)C(=O)N
Outline: as §1

[4] = compound: CC1=NC(=CC=C1)C2=C(N=C(N2)C(C)(C)C)C3=CC4=NC=CN=C4C=C3
Outline: as §1

Nexturastat A = compound: CCCCN(Cc1ccc(C(=O)NO)cc1)C(=O)Nc1ccccc1 [Nexturastat A]
Outline: as §1

vemurafenib = compound: CCCS(=O)(=O)Nc1ccc(F)c(C(=O)c2c[nH]c3ncc(-c4ccc(Cl)cc4)cc23)c1F [vemurafenib]
Outline: as §1

[5] = compound: CCCS(=O)(=O)Nc1ccc(F)c(C(=O)c2c[nH]c3ncc(Cl)cc23)c1F
Outline: as §1

[6] = compound: CCCc1cc(C)[nH]c(=O)c1CNC(=O)c1cc(-c2ccnc(N3CCN(C)CC3)c2)cc2c1cnn2C(C)C
Outline: as §1

givinostat = compound: CCN(CC)Cc1ccc2cc(COC(=O)Nc3ccc(C(=O)NO)cc3)ccc2c1 [givinostat]
Outline: as §1

barasertib = compound: CCN(CCCOc1ccc2c(Nc3cc(CC(=O)Nc4cccc(F)c4)[nH]n3)ncnc2c1)CCOP(=O)(O)O [barasertib]
Outline: as §1

[7] = compound: CC[C@@H]1C(=O)N(C)c2cnc(Nc3ccc(C(=O)NC4CCN(C)CC4)cc3OC)nc2N1C1CCCC1
Outline: as §1

volasertib = compound: CC[C@@H]1C(=O)N(C)c2cnc(Nc3ccc(C(=O)N[C@H]4CC[C@H](N5CCN(CC6CC6)CC5)CC4)cc3OC)nc2N1C(C)C [volasertib]
Outline: as §1

[8] = compound: CC[C@H](C)N1C=C(C2=C(C=C(C=C21)C3=CN=C(C=C3)N4CCNCC4)C(=O)NCC5=C(C=C(NC5=O)C)C)C
Outline: as §1

epoxomicin = compound: CC[C@H](C)[C@@H](C(=O)N[C@@H]([C@@H](C)O)C(=O)N[C@@H](CC(C)C)C(=O)[C@]1(CO1)C)NC(=O)[C@H]([C@@H](C)CC)N(C)C(=O)C [epoxomicin]
Outline: as §1

[9] = compound: CCn1c(C(=O)N(C2CC2)C2CC2)cc2c3c(ncn3C)c(Nc3cc(C)n(C)n3)nc21
Outline: as §1

[10] = compound: CCn1cc(-c2ccnc3[nH]c(-c4cccc(CN(C)C)c4)cc23)c(-c2ccc(NC(=O)N(C)C)cc2)n1
Outline: as §1

[11] = compound: CN(C)CC(=O)Nc1ccc2[nH]c(=O)c3ccccc3c2c1
Outline: as §1

rosiglitazone = compound: CN(CCOC1=CC=C(C=C1)C[C@H]2C(=O)NC(=O)S2)C3=CC=CC=N3 (racemic) [rosiglitazone]
Outline: as §1

[12] = compound: CN1C2=C(C3=C1C(=O)N(N=C3)CC4=CC(=CC=C4)N)SC(=C2)S(=O)C
Outline: as §1

[13] = compound: CN1CCC(CNc2ccc3ncc(-c4cccc(OC(F)(F)F)c4)n3n2)CC1
Outline: as §1

Measured: log2 fold change

CTCF (UniProt P49711)
inactive: [1] -0.003 | [2] -0.018 | [3] -0.041 | [4] -0.133 | Nexturastat A 0.066 | vemurafenib -0.092 | [5] -0.039 | [6] 0.115 | givinostat -0.051 | barasertib -0.101 | [7] 0.181 | volasertib 0.247 | [8] 0.127 | epoxomicin -0.189 | [9] -0.019 | [10] 0.272 | [11] -0.06 | rosiglitazone -0.087 | [12] 0.277 | [13] 0.339

CT45A5 (UniProt P0DMU8)
inactive: [1] 0.042 | [2] -0.031 | [3] -0.042 | [4] -0.05 | Nexturastat A 0.068 | vemurafenib -0.052 | [5] 0.019 | [6] 0.095 | givinostat 0.022 | barasertib -0.105 | [7] 0.108 | volasertib 0.201 | [8] 0.013 | epoxomicin -0.088 | [9] -0.045 | [10] 0.12 | [11] -0.097 | rosiglitazone -0.085 | [12] 0.128 | [13] 0.081

DAP (UniProt P51397)
inactive: [1] 0.016 | [2] -0.038 | [3] 0.043 | [4] 0.141 | Nexturastat A -0.089 | vemurafenib 0.019 | [5] -0.015 | [6] -0.05 | givinostat 0.023 | barasertib -0.022 | [7] 0.042 | volasertib 0.048 | [8] -0.029 | epoxomicin 0.051 | [9] 0.018 | [10] 0.007 | [11] -0.029 | rosiglitazone 0.034 | [12] -0.001 | [13] -0.025

CYCS (UniProt P99999)
inactive: [1] -0.032 | [2] 0.012 | [3] 0.015 | [4] 0.002 | Nexturastat A -0.138 | vemurafenib -0.009 | [5] -0.01 | [6] 0.02 | givinostat -0.04 | barasertib 0.013 | [7] 0.004 | volasertib 0.036 | [8] -0.068 | epoxomicin -0.028 | [9] 0.033 | [10] 0.005 | [11] -0.01 | rosiglitazone -0.013 | [12] -0.032 | [13] -0.041

CYBC1 (UniProt Q9BQA9)
inactive: [1] -0.046 | [2] 0.07 | [3] 0.014 | [4] 0.025 | Nexturastat A -0.014 | vemurafenib -0.037 | [5] -0.018 | [6] -0.044 | givinostat -0.009 | barasertib 0.007 | [7] 0.017 | volasertib 0.044 | [8] -0.049 | epoxomicin 0.024 | [9] 0.058 | [10] -0.014 | [11] -0.083 | rosiglitazone -0.004 | [12] -0.015 | [13] 0.191

CUSTOS (UniProt Q96C57)
inactive: [1] -0.016 | [2] 0.004 | [3] 0.02 | [4] -0.009 | Nexturastat A 0.042 | vemurafenib -0.014 | [5] 0.021 | [6] 0.01 | givinostat -0.024 | barasertib -0.038 | [7] 0.032 | volasertib 0.021 | [8] -0.007 | epoxomicin -0.034 | [9] 0.014 | [10] 0.031 | [11] -0.066 | rosiglitazone -0.006 | [12] -0.034 | [13] 0.001

DCAF11 (UniProt Q8TEB1)
inactive: [1] 0.01 | [2] 0.01 | [3] 0.001 | [4] 0.007 | Nexturastat A -0.106 | vemurafenib 0.006 | [5] -0.018 | [6] -0.023 | givinostat 0.041 | barasertib -0.009 | [7] 0.058 | volasertib -0.005 | [8] 0.024 | epoxomicin -0.019 | [9] -0.027 | [10] -0.003 | [11] -0.019 | rosiglitazone -0.013 | [12] -0.057 | [13] 0.026

CSTB (UniProt P04080)
inactive: [1] 0.023 | [2] -0.086 | [3] 0.008 | [4] -0.023 | Nexturastat A -0.019 | vemurafenib -0.106 | [5] 0.008 | [6] -0.216 | givinostat 0.002 | barasertib -0.032 | [7] 0.109 | volasertib 0.031 | [8] 0 | epoxomicin 0.114 | [9] 0.026 | [10] -0.076 | [11] 0.026 | rosiglitazone -0.022 | [12] 0.026 | [13] 0.086

CTNNA1 isoform 2 (UniProt P35221)
inactive: [1] -0.012 | [2] -0.009 | [3] -0.025 | [4] -0.001 | Nexturastat A 0.035 | vemurafenib 0.021 | [5] -0.013 | [6] -0.075 | givinostat 0.008 | barasertib 0.01 | [7] 0.014 | volasertib -0.009 | [8] 0.02 | epoxomicin 0.125 | [9] -0.021 | [10] -0.034 | [11] 0.003 | rosiglitazone 0.02 | [12] -0.057 | [13] 0.003

Two successive records out of the list so far:
CYBC1 (UniProt Q9BQA9)
inactive: [1] -0.046 | [2] 0.07 | [3] 0.014 | [4] 0.025 | Nexturastat A -0.014 | vemurafenib -0.037 | [5] -0.018 | [6] -0.044 | givinostat -0.009 | barasertib 0.007 | [7] 0.017 | volasertib 0.044 | [8] -0.049 | epoxomicin 0.024 | [9] 0.058 | [10] -0.014 | [11] -0.083 | rosiglitazone -0.004 | [12] -0.015 | [13] 0.191

CUSTOS (UniProt Q96C57)
inactive: [1] -0.016 | [2] 0.004 | [3] 0.02 | [4] -0.009 | Nexturastat A 0.042 | vemurafenib -0.014 | [5] 0.021 | [6] 0.01 | givinostat -0.024 | barasertib -0.038 | [7] 0.032 | volasertib 0.021 | [8] -0.007 | epoxomicin -0.034 | [9] 0.014 | [10] 0.031 | [11] -0.066 | rosiglitazone -0.006 | [12] -0.034 | [13] 0.001

Additional entries follow.

CTPS1 isoform 2 (UniProt P17812)
inactive: [1] 0.208

CZIB (UniProt Q9NWV4)
inactive: [1] -0.01 | [2] -0.019 | [3] -0.017 | [4] 0.05 | Nexturastat A -0.103 | vemurafenib 0.012 | [5] 0.003 | [6] -0.051 | givinostat -0.086 | barasertib 0.016 | [7] -0.013 | volasertib -0.1 | [8] 0.008 | epoxomicin 0.045 | [9] 0.002 | [10] 0.021 | [11] -0.012 | rosiglitazone 0.009 | [12] -0.054 | [13] -0.011

CSRP1 (UniProt P21291)
inactive: [1] -0.03 | [2] -0.014 | [3] 0.019 | [4] -0.021 | Nexturastat A -0.001 | vemurafenib -0.01 | [5] -0.001 | [6] 0.026 | givinostat -0.006 | barasertib -0.025 | [7] 0.003 | volasertib 0.062 | [8] -0.021 | epoxomicin 0.017 | [9] 0.014 | [10] -0.034 | [11] 0.002 | rosiglitazone 0 | [12] 0 | [13] -0.001

DAZAP1 (UniProt Q96EP5)
inactive: [1] 0.059 | [2] 0.039 | [3] -0.032 | [4] 0.026 | Nexturastat A 0 | vemurafenib 0.028 | [5] 0.035 | [6] 0.213 | givinostat -0.032 | barasertib -0.047 | [7] 0.099 | volasertib 0.031 | [8] 0.001 | epoxomicin -0.077 | [9] -0.009 | [10] 0.173 | [11] -0.028 | rosiglitazone -0.009 | [12] -0.015 | [13] 0.198

CTBP2 isoform 2 (UniProt P56545)
inactive: [1] -0.016 | [2] 0.023 | [3] -0.006 | [4] 0.06 | Nexturastat A -0.084 | vemurafenib -0.013 | [5] -0.039 | [6] 0.001 | givinostat 0.027 | barasertib 0.009 | [7] 0.077 | volasertib 0.051 | [8] -0.03 | epoxomicin -0.003 | [9] 0.011 | [10] -0.048 | [11] 0.02 | rosiglitazone 0.001 | [12] -0.054 | [13] 0.016

CYB5R2 (UniProt Q6BCY4)
inactive: [1] -0.036 | [2] 0.038 | [3] -0.021 | [4] -0.003 | Nexturastat A -0.049 | vemurafenib -0.008 | [5] -0.06 | [6] -0.004 | givinostat -0.019 | barasertib 0 | [7] 0.049 | volasertib 0.114 | [8] -0.06 | epoxomicin 0.031 | [9] -0.021 | [10] 0.029 | [11] -0.035 | rosiglitazone 0 | [12] -0.014 | [13] -0.09

DARS (UniProt P14868)
inactive: [1] -0.051 | [2] 0.008 | [3] -0.025 | [4] -0.033 | Nexturastat A 0.052 | vemurafenib -0.026 | [5] -0.031 | [6] -0.008 | givinostat -0.001 | barasertib -0.002 | [7] 0.05 | volasertib 0.062 | [8] -0.017 | epoxomicin -0.041 | [9] 0.002 | [10] 0.028 | [11] -0.009 | rosiglitazone -0.013 | [12] 0.045 | [13] -0.01
